# Earlier results as cited in patent publication US9937166B2 (INFLAMMATORY RESPONSE RESEARCH, INC., priority 2013, dated 2018).
# Chains of the proteins cited; added tags and fusions are not shown.
# UniProt P35367, whole entry: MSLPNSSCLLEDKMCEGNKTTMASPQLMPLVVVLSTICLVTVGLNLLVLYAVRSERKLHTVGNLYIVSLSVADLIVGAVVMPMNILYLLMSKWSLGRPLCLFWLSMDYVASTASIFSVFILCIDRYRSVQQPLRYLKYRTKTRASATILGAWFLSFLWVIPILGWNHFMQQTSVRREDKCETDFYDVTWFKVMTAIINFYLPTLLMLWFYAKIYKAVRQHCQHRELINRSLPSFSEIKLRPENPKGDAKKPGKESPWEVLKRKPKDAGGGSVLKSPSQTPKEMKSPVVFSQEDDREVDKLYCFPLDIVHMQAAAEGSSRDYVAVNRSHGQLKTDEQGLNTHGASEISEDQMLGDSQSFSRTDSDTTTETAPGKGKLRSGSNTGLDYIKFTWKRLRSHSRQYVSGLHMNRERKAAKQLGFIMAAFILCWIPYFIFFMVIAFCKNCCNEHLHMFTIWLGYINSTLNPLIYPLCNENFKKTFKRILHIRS
# Assays:
# H1 receptor = H1 receptor (Homo sapiens, UniProt P35367)
# [1] = in vivo
smiles,measurement,setting,value
O=C(O)COCCN1CCN([C@H](c2ccccc2)c2ccc(Cl)cc2)CC1 [levocetirizine],"Receptor affinity in an acidic ph, increased",H1 receptor,increased 5×
same,Time to peak plasma level,[1],0.9 h
